Laboratory results from the supplement of paper PMC3334620.
Whole data set: some 33,000 sequences, median “E-score (-0.5 to 0.5)” near -0.0034, cut for the highest 2% near 0.25. This is one part of the list.

target: T1, Yap3 (UniProt P38749); assay: PBM E-score (8-mer binding enrichment) (E-score (-0.5 to 0.5)); higher = stronger / more preferred TF binding; conditions: protein concentration: 100 nM; construct: GST-full length
T1 sequence: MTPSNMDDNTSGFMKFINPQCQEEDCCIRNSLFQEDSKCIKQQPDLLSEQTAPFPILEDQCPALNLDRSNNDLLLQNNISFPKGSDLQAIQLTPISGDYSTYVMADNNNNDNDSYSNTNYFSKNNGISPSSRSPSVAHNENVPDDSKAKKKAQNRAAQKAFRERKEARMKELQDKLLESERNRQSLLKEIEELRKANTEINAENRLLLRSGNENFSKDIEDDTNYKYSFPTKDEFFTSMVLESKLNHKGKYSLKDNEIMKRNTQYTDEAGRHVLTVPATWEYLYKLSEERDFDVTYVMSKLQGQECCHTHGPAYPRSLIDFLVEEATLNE
Protocol: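 Universal 'all 10-mer' protein binding microarrays (Agilent AMADID 015681) probed with GST-tagged S. cerevisiae TFs (full-length or DBD) made by in vitro transcription/translation (PURExpress), about 100-200 nM. Bound TF was detected with fluorescent anti-GST. Each ungapped 8-mer (which stands for itself and its reverse complement) is scored by the PBM enrichment score (E-score), a modified Wilcoxon-Mann-Whitney statistic from -0.5 to +0.5, computed with the Universal PBM Analysis Suite. Scale: above 0.35 generally sequence-specific binding.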

Compared with CACAAGTA, CACCCCAA is higher in “PBM E-score” value: -0.0241 for the first, 0.0621 for the second.

First: CCCGTTTA
Second: ACAAATAG
The “PBM E-score” value of the first is lower: 0.0936 for the first, 0.202 for the second.

Going from CCCTGCCA to CCAGGCAG, the “PBM E-score” value rises from -0.19 to -0.115.

Going from AAATCGTT to ACAGAGCT, the “PBM E-score” value falls from 0.182 to -0.258.

Compared with CCGGGGGC, CCGTATAA is higher in “PBM E-score” value: -0.383 for the first, 0.0935 for the second.

Going from CAGTCAGA to TACCTTAA, the “PBM E-score” value falls from 0.0303 to -0.00521.

Going from ACGTTTTA to GACTATAC, the “PBM E-score” value rises from 0.148 to 0.216.

Going from ATTTTAAA to CTCCTATC, the “PBM E-score” value falls from 0.282 to -0.00854.

Going from ATGCGGGA to GTGTAAAA, the “PBM E-score” value rises from 0.0303 to 0.152.

Compared with AAGTAGGT, GCCTTTAC is higher in “PBM E-score” value: -0.0577 for the first, 0.0482 for the second.

First: AATACACT
Second: GGTATTGA
The “PBM E-score” value of the first is higher: 0.259 for the first, 0.0614 for the second.

Going from AGTGGGCC to GTTGGGCA, the “PBM E-score” value rises from -0.209 to 0.0234.

First: CTTGCCAC
Second: AGTGCTTA
The “PBM E-score” value of the first is lower: -0.0801 for the first, 0.0381 for the second.

First: GGTCTATA
Second: TCAAACAA
The “PBM E-score” value of the first is lower: 0.0835 for the first, 0.101 for the second.

Compared with CCATTCCG, ATGTTCTG is higher in “PBM E-score” value: -0.0825 for the first, -0.0181 for the second.

First: AAGTCAAG
Second: CTTTGAAC
The “PBM E-score” value of the first is lower: -0.0673 for the first, -0.051 for the second.

Compared with CGGATTGC, CACTTCAC is higher in “PBM E-score” value: 0.0717 for the first, 0.0734 for the second.

Going from AGCGCAAC to GAGAAATA, the “PBM E-score” value falls from 0.0702 to -0.00553.

Going from AATAAGGC to ATCCAGAA, the “PBM E-score” value rises from 0.17 to 0.186.

Compared with ACAGAGTA, GGGTACCA is lower in “PBM E-score” value: 0.0108 for the first, -0.202 for the second.

Going from ATCGCCTA to ATTAAGAA, the “PBM E-score” value rises from -0.0385 to 0.107.

Going from CGGTCGAA to GCATTAGC, the “PBM E-score” value falls from 0.00971 to -0.0616.

Compared with CAGTCTGA, GGACCTCC is lower in “PBM E-score” value: 0.0314 for the first, -0.34 for the second.

First: ATTCTCCC
Second: AGTTTATG
The “PBM E-score” value of the first is lower: -0.017 for the first, 0.0187 for the second.

Compared with GAGCCGGC, TCATGAAA is higher in “PBM E-score” value: -0.283 for the first, 0.0785 for the second.

Going from CGTGAGCC to CTAAGATA, the “PBM E-score” value rises from -0.111 to 0.0736.

First: CACCTCTC
Second: ATGTGTCG
The “PBM E-score” value of the first is lower: -0.22 for the first, 0.173 for the second.

First: CAGTTCGG
Second: GTTTTCGA
The “PBM E-score” value of the first is higher: 0.0866 for the first, 0.0512 for the second.

First: AAAGTTCC
Second: AACGAAAG
The “PBM E-score” value of the first is lower: -0.127 for the first, 0.0862 for the second.

First: GGGGTGGA
Second: CACAAATC
The “PBM E-score” value of the first is lower: -0.248 for the first, 0.0914 for the second.

First: CATTGGTC
Second: AATGTAGT
The “PBM E-score” value of the first is lower: -0.0705 for the first, 0.0938 for the second.

Compared with ACTTGAGA, TCTACAAA is higher in “PBM E-score” value: -0.00096 for the first, 0.0689 for the second.

Compared with AATCTTAT, AACATGTA is higher in “PBM E-score” value: 0.15 for the first, 0.251 for the second.

Compared with AGCAATAC, ACTTTCCG is lower in “PBM E-score” value: 0.0998 for the first, 0.0367 for the second.

Compared with ATCAATTA, TGTGTGAA is lower in “PBM E-score” value: 0.318 for the first, -0.0332 for the second.

Going from ACCTTGGG to AGGTGGCG, the “PBM E-score” value falls from 0.0429 to -0.105.

First: CGCCCGTC
Second: AATACGGG
The “PBM E-score” value of the first is higher: -0.0417 for the first, -0.0899 for the second.

First: CTCGGGTA
Second: ACAGGTCA
The “PBM E-score” value of the first is higher: -0.106 for the first, -0.152 for the second.

First: ACAGCGCC
Second: AAGACCTA
The “PBM E-score” value of the first is higher: -0.0517 for the first, -0.0868 for the second.

First: ATTCTACG
Second: GCGCCGCC
The “PBM E-score” value of the first is higher: 0.0314 for the first, -0.0619 for the second.

Compared with GTAAGGTA, GTCGGAAA is higher in “PBM E-score” value: 0.182 for the first, 0.263 for the second.

Going from GTGTACTA to ACATAATC, the “PBM E-score” value rises from 0.133 to 0.293.

Compared with CTATCTCA, AGACTTTC is higher in “PBM E-score” value: -0.0511 for the first, -0.0313 for the second.
